PubChem BioAssay AID1224830 – NIAID, 2016
In all, the deposit lists about 18,000 reagents; this is a random part of them. In the full data, about 2,900 (16%) got an active call. 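Calls are made per well; low scores hint the gene aids the LPS response, high scores that it dampens it.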 A number with no mark means an inactive call. Repeated entries: four replicate wells of each siRNA pool. Reagent sequences are not shown.

Purpose: 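Genes whose knock-down alters the TNF-alpha reporter response to LPS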 (primary screen)
Cells: human THP-1 monocytic leukaemia cells, TNF dual-luciferase reporter clone, PMA-differentiated to macrophage-like cells
Reagents: siRNA pool against human genes, 50 nM
Duration: LPS for 4 h, given about 3 days after siRNA transfection
Treatment: bacterial LPS (TLR4 ligand), 10 ng/ml
Detection: 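Ratio of firefly to renilla light, scaled to the plate median and expressed as a robust z-score per replicate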
Scale: TNF reporter robust z-score: higher = stronger TNF reporter response to LPS
Active means: 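a well is active when its z-score exceeds 2.8 or falls below -1.5; control wells carry no call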

Silencing of ARGFX gave: TNF reporter robust z-score -0.51.
ARGFX scored TNF reporter robust z-score -0.48.
ARGFX gave TNF reporter robust z-score -0.99.
For ARGFX, the values are TNF reporter robust z-score 0.16.
With knock-down of CWC25 the results were TNF reporter robust z-score 0.53.
CWC25 gave TNF reporter robust z-score 0.13.
Against CWC25 the deposit lists TNF reporter robust z-score 0.18.
For CWC25, the entry reads TNF reporter robust z-score 0.61.
For CNIH2, the values are TNF reporter robust z-score -0.02.
After knock-down of CNIH2, the screen gave TNF reporter robust z-score -0.03.
CNIH2 showed TNF reporter robust z-score -0.94.
After knock-down of CNIH2, the record shows TNF reporter robust z-score -0.61.
After knock-down of IMMP2L the results were TNF reporter robust z-score 0.84.
With knock-down of IMMP2L the results were TNF reporter robust z-score 2.33.
With knock-down of IMMP2L, the record shows TNF reporter robust z-score 0.19.
Depletion of IMMP2L gave: TNF reporter robust z-score 0.74.
PCNX1 showed TNF reporter robust z-score -1.01.
With knock-down of PCNX1, the screen gave TNF reporter robust z-score -0.41.
For PCNX1, the values are TNF reporter robust z-score -0.3.
Silencing of PCNX1 gave: TNF reporter robust z-score -0.31.

5 entries from above, arranged by “TNF reporter robust z-score”, low to high:
PCNX1 → TNF reporter robust z-score = -1.01
PCNX1 → TNF reporter robust z-score = -0.41
PCNX1 → TNF reporter robust z-score = -0.31
PCNX1 → TNF reporter robust z-score = -0.3
IMMP2L → TNF reporter robust z-score = 0.74

Additional results follow:
For CCL3L3 the deposit lists TNF reporter robust z-score 0.37.
After knock-down of CCL3L3, the screen gave TNF reporter robust z-score -0.25.
Against CCL3L3, the entry reads TNF reporter robust z-score -0.08.
CCL3L3 gave TNF reporter robust z-score -0.14.
After knock-down of GTF2H5 the results were TNF reporter robust z-score -0.44.
After knock-down of GTF2H5 the results were TNF reporter robust z-score 0.38.
Depletion of GTF2H5 resulted in: TNF reporter robust z-score -0.03.
After knock-down of GTF2H5, the record shows TNF reporter robust z-score 0.51.
ERCC2 gave TNF reporter robust z-score -1.05.
Silencing of ERCC2 gave: TNF reporter robust z-score 0.41.
Against ERCC2, the values are TNF reporter robust z-score 1.09.
Knock-down of ERCC2 resulted in: TNF reporter robust z-score 0.93.
